From paper PMC8651674
Negatives hold for the conditions tested. At least one verdict rests on a figure or table, not on a statement of the authors. Tags and fusion partners may be left off the protein sequences shown.

Assays:
[1] = target: T1, RNase B (RB), N-glycosylated (UniProt P61823); test: bead-based flow cytometry; settings: 20 µM protein, negative control; RB: 20 mM Tris-HCl, 120 mM NaCl, 5 mM KCl, 1 mM MgCl2, 1 mM CaCl2, 0.01% Tween-20, RT, 45 min (MST 1 h); fetuin: 20 mM Tris-HCl pH 7.5, 100 mM NaCl, 2 mM MgCl2, 5 mM KCl; commercial protein; label: bead; single-stranded DNA
T1 sequence (looked up, limits assumed): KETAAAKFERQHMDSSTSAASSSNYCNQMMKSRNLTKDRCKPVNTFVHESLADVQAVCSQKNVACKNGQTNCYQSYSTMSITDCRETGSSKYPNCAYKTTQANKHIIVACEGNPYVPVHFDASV

[2] = target: T2, fetuin (UniProt P12763); test: bead-based flow cytometry; settings: 1 µM protein, negative control, RB: 20 mM Tris-HCl, 120 mM NaCl, 5 mM KCl, 1 mM MgCl2, 1 mM CaCl2, 0.01% Tween-20, RT, 45 min (MST 1 h), fetuin: 20 mM Tris-HCl pH 7.5, 100 mM NaCl, 2 mM MgCl2, 5 mM KCl, commercial protein, protein details: Dylight 650 label in bead assays, unlabeled in MST, single-stranded DNA
T2 sequence (looked up, limits assumed): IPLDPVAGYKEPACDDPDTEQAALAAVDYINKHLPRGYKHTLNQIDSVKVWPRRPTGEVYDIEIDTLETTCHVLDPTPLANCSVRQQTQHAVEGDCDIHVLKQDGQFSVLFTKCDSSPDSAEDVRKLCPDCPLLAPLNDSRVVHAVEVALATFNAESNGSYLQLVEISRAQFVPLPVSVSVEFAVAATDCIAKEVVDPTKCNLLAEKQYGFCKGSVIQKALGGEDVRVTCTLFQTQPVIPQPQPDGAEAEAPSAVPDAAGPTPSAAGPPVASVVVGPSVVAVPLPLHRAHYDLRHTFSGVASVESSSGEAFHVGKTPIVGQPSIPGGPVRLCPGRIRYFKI

Sequence | binding result [1] | binding result [2]
AGCAGCACAGAGGTCAGATG [FP (RB forward primer)] | no binding | 
CCAGCGAGCCAGCGAC [Fet FP (fetuin forward primer)] |  | no binding
